These are yes or no findings as the source states them, for the method shown.
Legend:
[1] = target: human acetylcholinesterase (pGBKT7-hACHE, aa 52-577) (human) (UniProt P22303); assay: two-hybrid; Matchmaker Gold; small scale mating (5 ml) of Y2HGold [pGBKT7-hACHE] bait with Y187 preys, no hybrid ligand; DDO agar with aureobasidin A (200 ng/ml) and X-alpha-Gal (40 ug/ml) (DDO/X/A)
[2] = target: human acetylcholinesterase (pGBKT7-hACHE, aa 52-577) (human) (UniProt P22303); assay: yeast three-hybrid; small scale mating (10 ml) of bait and prey strains with 10 uM hybrid ligand 3e; DDO agar with 10 uM ligand, aureobasidin A (200 ng/ml) and X-alpha-Gal (40 ug/ml); blue colonies moved to QDO/X/A agar with and without 10 uM ligand

The chains behind the UniProt entries cited, without tags or fusion partners. Residues count along the entry.
UniProt P22303, residues 52-577: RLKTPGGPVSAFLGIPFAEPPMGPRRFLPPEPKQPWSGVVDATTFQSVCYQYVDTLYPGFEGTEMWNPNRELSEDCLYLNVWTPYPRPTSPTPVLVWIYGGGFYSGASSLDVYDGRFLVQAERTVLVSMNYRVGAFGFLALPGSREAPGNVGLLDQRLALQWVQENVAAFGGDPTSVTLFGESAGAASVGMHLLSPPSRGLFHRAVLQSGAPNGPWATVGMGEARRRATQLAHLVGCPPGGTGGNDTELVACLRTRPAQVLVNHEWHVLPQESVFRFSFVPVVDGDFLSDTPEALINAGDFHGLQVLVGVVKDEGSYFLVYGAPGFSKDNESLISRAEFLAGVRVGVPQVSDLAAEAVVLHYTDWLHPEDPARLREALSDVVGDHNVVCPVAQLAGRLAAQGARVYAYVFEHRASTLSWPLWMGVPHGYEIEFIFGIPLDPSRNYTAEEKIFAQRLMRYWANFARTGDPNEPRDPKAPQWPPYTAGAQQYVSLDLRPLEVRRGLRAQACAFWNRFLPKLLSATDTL
UniProt P27338, residues 1-489: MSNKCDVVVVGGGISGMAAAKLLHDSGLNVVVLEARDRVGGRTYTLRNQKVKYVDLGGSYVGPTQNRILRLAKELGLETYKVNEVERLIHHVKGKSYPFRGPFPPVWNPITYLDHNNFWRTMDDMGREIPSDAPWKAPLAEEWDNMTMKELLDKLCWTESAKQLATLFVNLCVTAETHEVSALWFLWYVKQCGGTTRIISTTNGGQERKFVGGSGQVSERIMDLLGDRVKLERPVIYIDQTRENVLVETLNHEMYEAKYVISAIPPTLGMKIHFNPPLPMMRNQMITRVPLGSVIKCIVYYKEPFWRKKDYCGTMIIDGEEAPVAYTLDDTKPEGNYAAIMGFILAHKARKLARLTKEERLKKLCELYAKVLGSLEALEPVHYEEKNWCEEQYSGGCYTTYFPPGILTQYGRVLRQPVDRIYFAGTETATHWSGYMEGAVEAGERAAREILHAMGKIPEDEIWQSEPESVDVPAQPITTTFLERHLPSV

Substance	binding [1]	binding [2]
human microtubule associated protein tau (pGADT7-hMAPT, aa 1-758) (from UniProt P10636-1 1-758)	no binding	no binding
human monoamine oxidase B, cytoplasmic domain (pGADT7-hMAO B, aa 1-489) (from UniProt P27338 1-489) (domain or fragment)	no binding	no binding

From article PMC9848259 (Journal of Enzyme Inhibition and Medicinal Chemistry, 2023)
